Assay results reported in PubChem BioAssay AID1347423 (Functional Genomics Laboratory (NCATS/FGL), 2020).
In all, about 52,000 sequences went through this assay and about 210 (0.4%) were called active.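 How the source made its calls: active means gene whose silencing raises cell survival under the drug, median off-target-corrected z-score across its silencing RNAs 2 or more; inactive means the rest.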 This is one part of the list.

experiment: Resistance to Poly (ADP-Ribose) Polymerase inhibitor: Gene Identification via Genome-wide siRNA Screen; settings: mouse BRCA2 R2336H ES cells, olaparib, CellTiter-Glo viability; hits give high values
Method in brief: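 Genome-wide siRNA screen (3 siRNAs/gene, 20 nM) in mouse ES cells carrying hypomorphic BRCA2 R2336H; olaparib 500 nM added 48 h post-transfection, CellTiter-Glo viability 72 h later. Normalized to plate-median negative control; MAD z-scores, gene median, seed-adjusted.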

Sequence | z-score
GGUGGUUUUGCUUUCUGUCTT against 6332401O19Rik | inactive: 0.765
GGUGGUCUACUUAGGUUUATT against Sc5d | inactive: 0.431
GGCUAAGUAGAACUUGUUATT against Pdcl2 | inactive: 1.5
GGAAAACUACUAAAAAGUCTT against 4932415D10Rik | inactive: -0.932
GCAUCGCAUUUAAAUAGAATT against 4833408A19Rik | inactive: 0.307
GGAGAAUGAAAGUCAAGUUTT against Smn1 | inactive: -1.58
GCUAGACUCAAUCAAGCAGTT against Papln | inactive: -1.4
GCUUAAGUGGCAACCUAGATT against Zfp93 | inactive: -0.876
GGAAAUACCCACCUUAUACTT against Efhc2 | inactive: -0.277
GGAGAAGAAGUGCUUCCCUTT against Gls2 | inactive: -0.676
GGAUGAAGAAGAGAUCAACTT against 2310057H16Rik | inactive: 0.83
GCUCGAUUUUAAGCAUAUGTT against E130307J07Rik | inactive: 0.375
GGUAGAUGGCAUCUACUAUTT against 1110007C05Rik | inactive: 0.125
GGAGAUAAUGAAGAAGGUUTT against Mgat5 | inactive: -0.377
CGAACAACCUCAUUUCAUGTT against Atp8b1 | inactive: 0.146
GGCAACUCUAUAGAAGAAATT against 4732463G12Rik | inactive: -0.168
GGCUUGGUUCUGGUACCUUTT against Ddx28 | inactive: 0.911
GGAUUUGAGUGGUAAUGAATT against Bbp | inactive: 2.1
GGCCAUCUGCUCCUUUAUUTT against Aqp11 | inactive: 0.519
GGAUCUUGAGAAGAAGUAUTT against Adcy6 | inactive: 0.435
GCUAAAAACGAGAUAAGAGTT against Snx2 | inactive: 0.744
CCUUGUUCCCUUAUUGUACTT against Olfr362 | inactive: -0.295
CCGAAAAUGGUUAGGACAUTT against Kynu | inactive: -1.43
GGUUUGUUUACUCCUUUUGTT against Olfr876 | inactive: 1.67
GCAUCUCAAAGUGUCACUATT against Ubxd3 | inactive: 2.41
CGAGUUAUCCAAUAGCAUCTT against Rab12 | inactive: 0.532
GCCGAUAUUGUGACAAGAUTT against Cd72 | inactive: 0.165

An excerpt of the results above:
Sequence | z-score
GGCUUGGUUCUGGUACCUUTT against Ddx28 | inactive: 0.911
GGAUUUGAGUGGUAAUGAATT against Bbp | inactive: 2.1

More records follow:

Sequence | z-score
GGUGGAUAAAACCAAAAUGTT against Orc6l | inactive: -1.7
GGGAGACAGUGAUGGUUACTT against Ihpk1 | inactive: -0.283
CCAGAAGACCUUUUACCUGTT against Il1rn | inactive: 0.314
GGAUCAGGUGUGUGAGUCCTT against Gzmc | inactive: -1.34
GGAAGUCCACUUUUUUGUGTT against Cpb2 | inactive: 0.378
CGAAUACGUGUCAUGAUUUTT against Gbas | inactive: 0.417
GGAAUAGGACCUAUGUCUGTT against Nr2e1 | inactive: -0.326
GGUCUUUGAGUCUACACAGTT against Usmg4 | inactive: -0.311
CGUUUCAAUCAGAGGACUUTT against Gig1 | inactive: -0.363
GGCUCUUGAUACGAAUGUATT against Aadac | inactive: -2.16
GGCUGGAGUCAAAGGAAAGTT against Nudt4 | inactive: -1.5
GGAUAAUGGUUUAAAACUCTT against B630005N14Rik | inactive: 0.48
GGAUGGUUACAAAAGAGAUTT against Dspp | inactive: 0.806
GCCACGUUCCUCAUCGAUUTT against Plscr3 | inactive: 0.887
GCCAACUGGAUAUUAACAATT against Dnm1l | inactive: -1.36
GGAUCUAUAUCCAGUAGAGTT against Smcr7 | inactive: 2.29
CCAACGUGAGCAUAUUAUATT against Adcy2 | inactive: 0.104
GGACAUUAGAGAUUUCCGATT against Isyna1 | inactive: 0.203
GGCUGUGAUAUUGUUAUUCTT against E130119P06Rik | inactive: 0.823
GGAGUAUGCUCAGGUGAUCTT against Eif1a | inactive: -0.23
CGAUCUGCUAUCAUAAGCATT against A630005I04Rik | inactive: -0.553
GGGACUUCCAAGGAAAGUGTT against Dbi | inactive: -1.33
CCAGUGUGGAGGAAAGUACTT against Gm123 | inactive: -0.523
GGCUUAAACACCUCCAAUGTT against Catnd2 | inactive: -1.63
CCAACUACACACUACGCAUTT against Grik5 | inactive: 0.98
CCGACUACGUCAAUUGGUUTT against Fbxo21 | inactive: 0.127
GGAUCCAUGCUGUCAGUGGTT against Sftpa1 | inactive: -0.283

Sequence | z-score
GGGUAACGUGCUGCUUCUATT against Bri3 | inactive: -0.647
CCCAUCUUCAGAUUGUGCATT against B230362M20Rik | inactive: 0.00113
GGCUUUCAAGGGUUGCCAATT against Ms4a3 | inactive: 1.36
GGUCUAAUAUAAACGGGCCTT against Ppp4r2 | inactive: -0.463
GGCCAUGGAAAAGUUCCGUTT against Kcna3 | inactive: 0.353
GGCUGUAGUGGUGCUAAUUTT against Slc10a2 | inactive: -1.01
GGCAUUGGUGUUUCAUUAATT against Gpm6a | inactive: 0.397
GGUUGUCCCACAUACUUCCTT against Nr1d1 | inactive: 0.227
CCCAAAGUGGUAUCCAAAGTT against 6030498E09Rik | inactive: -2.45
GCCUCCAUGGGAAAUCAAGTT against Zfp37 | inactive: 0.292
GGCUGAAAAGGAAAAUCCATT against Pdcd10 | inactive: 0.348
GGAAGACCAGCACUUGAAATT against Klhl13 | inactive: 0.293
GCAGAUGCUAACAUAUCCATT against Trim32 | inactive: 0.38
GGCUGCCAGUCAACUUUCUTT against Krtap14 | inactive: -1.43
GCUUAAACUACAGCCCGAGTT against Spag5 | inactive: -0.257
CCGUUUACCAACCAAGAAUTT against Tnfrsf17 | inactive: 0.972
GGGAUUCUGUCCUUGGUCATT against Havcr2 | inactive: -1.3
GCUUUGACUACAUCUGAGGTT against 1200003M09Rik | inactive: -0.219
GGACCUGUCUGAAGACUUGTT against Asf1a | inactive: -0.321
CGAUCUUGAUUAGUUUCAUTT against Plp1 | inactive: 0.411
GCUUUGACUACGAGGAUUATT against Ets1 | inactive: 1.5
GGGUUUUAGAAUUGCUCUUTT against Tst | inactive: -0.255
GCUAAAGAACGUGCCAAUGTT against Sfrs10 | inactive: 0.101
GGAAACUACAAAUUUGGCATT against Krtap6-2 | inactive: 1.3
GGAACUGGUCUCAGAAGAGTT against Cd79b | inactive: -0.521
GGUACUUUGUGGGAGAAGATT against Actrt1 | inactive: -0.104
GGAUGUGAUGAAGUUGGCCTT against Olfr78 | inactive: 2.19

Sequence | z-score
GGACAACAAAUUUCGACUATT against Trappc6b | inactive: 0.218
GGAGGAAGAGAUUUUAAACTT against Rps8 | inactive: -2.59
CCAGAAUACUGGGAUACAATT against AB114826 | inactive: -0.722
GGUUUUUUAAGUUCAGCCGTT against Got2 | inactive: 1.23
GGCUGUCUAUAAGAAUGUUTT against Nup210 | inactive: -1.16
GCAUGAUCUCAUGUUCCUUTT against D4Ertd89e | inactive: -0.0953
GGAGGUGGAAAAUCUGUACTT against Cdca8 | inactive: -0.762
GGCCGUUUCACUACCAUUCTT against Ier2 | inactive: -0.359
GGGAGGAAAUGAAUGAAUUTT against Gypc | inactive: -0.419
GGAUUUUAGAAGUAAUGGGTT against Rog | inactive: 0.677
GGAGUUUCUGGAAGAGAUCTT against Ube3b | inactive: 0.344
GGAGAUCGCACCUAAGAUUTT against Pgam2 | inactive: 0.325
GGCUUGCUUUGCUUCCCUUTT against 1500003D12Rik | inactive: 0.588
GCCAUAAGGCAGAAUCCAATT against 4933406E20Rik | inactive: 0.26
GCGAGUUGUAACAUUGCCATT against St14 | inactive: -1.98
GGAGAUUGGCAUCCAGAACTT against D130074J02Rik | inactive: 0.312
GGAAAAUGUUUCUGAUGAATT against Nfat5 | inactive: -0.901
GGUCACUGGAGCUUUAAUATT against Olfr705 | inactive: 1.29
GCUGCCAAAGUGACAUAGATT against Notch3 | inactive: 1.41
GGUUAUCCAGAGAGUGCAUTT against 1110036H21Rik | inactive: 0.169
GCCGCACUAAAUUCUCUUATT against H2-Oa | inactive: 0.502
GGAUAUGAAACACCAGAUCTT against Birc1b | inactive: -1.36
GGUUGAUGGGAAAACAAUATT against Rab11a | inactive: -0.166
GGAUGAAGUGUGUUUUGGCTT against Sim1 | inactive: 2.53

7 entries drawn at random from the list so far, as already listed:
Sequence | z-score
GCGAGUUGUAACAUUGCCATT against St14 | inactive: -1.98
GGUUGAUGGGAAAACAAUATT against Rab11a | inactive: -0.166
GCAUGAUCUCAUGUUCCUUTT against D4Ertd89e | inactive: -0.0953
GGAGUUUCUGGAAGAGAUCTT against Ube3b | inactive: 0.344
GGCUUGCUUUGCUUCCCUUTT against 1500003D12Rik | inactive: 0.588
GGAGGAAGAGAUUUUAAACTT against Rps8 | inactive: -2.59
GGACAACAAAUUUCGACUATT against Trappc6b | inactive: 0.218
